Measured values published in paper PMC10485903.
No constants are given. Whether binding was seen depends on the method and setting.

Target: T1, human lysozyme (human), P61626
T1 chain: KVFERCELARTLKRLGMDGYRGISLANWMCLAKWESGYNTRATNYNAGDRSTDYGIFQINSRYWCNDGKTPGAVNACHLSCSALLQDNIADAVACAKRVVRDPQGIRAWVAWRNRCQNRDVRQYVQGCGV
Experiment: cross-linking; PICUP: 20 μM protein in 10 mM MES/NaOH, 0.02% NaN3, pH 5.5, with Ru(bpy) and APS, 450 nm LED, lighting times 1-4096 ms; protein freshly isolated by SEC and kept 0.5-1 h on ice; read by SDS-PAGE (InstantBlue or silver stain); also with 0-20 μM ThT; both purified
Settings: remark: other sources report otherwise

B1: human lysozyme, P61626 19-148 (enzyme)
chain: KVFERCELARTLKRLGMDGYRGISLANWMCLAKWESGYNTRATNYNAGDRSTDYGIFQINSRYWCNDGKTPGAVNACHLSCSALLQDNIADAVACAKRVVRDPQGIRAWVAWRNRCQNRDVRQYVQGCGV
  binding: no binding (tested: 20 μM)
